These are yes or no findings as the source states them, for the method shown. Binding seen in cells or lysates may run through a third protein. Some results given as binding are weak or reduced against the parent protein; the word gives no strength.
Molecular target: eukaryotic translation elongation factor 1 alpha 1 (eEF1A1) (human (endogenous in HCC1806)) (UniProt P68104)
Assay: co-IP; IP with eEF1A1 antibody from HCC1806 lysate (EBC buffer, 1 mg protein, 4 °C overnight, Protein G Dynabeads); cells overexpressing TUBB2B-Flag (WB Flag) or wild type cells (WB TUBB2B antibody)

Protein sequences, listed by entry. Tags and fused reporters are not part of them.
UniProt P68104: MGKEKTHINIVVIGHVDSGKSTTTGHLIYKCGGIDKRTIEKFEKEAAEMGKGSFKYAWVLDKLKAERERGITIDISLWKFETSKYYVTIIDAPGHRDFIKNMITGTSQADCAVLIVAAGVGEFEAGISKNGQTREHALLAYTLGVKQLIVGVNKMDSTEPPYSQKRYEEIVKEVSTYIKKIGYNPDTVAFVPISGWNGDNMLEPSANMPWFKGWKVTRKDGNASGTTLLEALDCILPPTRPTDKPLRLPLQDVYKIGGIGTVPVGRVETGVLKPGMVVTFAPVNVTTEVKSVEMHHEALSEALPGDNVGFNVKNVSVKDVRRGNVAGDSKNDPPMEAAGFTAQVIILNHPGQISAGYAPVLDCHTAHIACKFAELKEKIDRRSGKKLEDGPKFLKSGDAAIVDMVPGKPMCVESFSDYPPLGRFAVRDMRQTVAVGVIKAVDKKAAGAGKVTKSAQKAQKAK
UniProt Q9BVA1: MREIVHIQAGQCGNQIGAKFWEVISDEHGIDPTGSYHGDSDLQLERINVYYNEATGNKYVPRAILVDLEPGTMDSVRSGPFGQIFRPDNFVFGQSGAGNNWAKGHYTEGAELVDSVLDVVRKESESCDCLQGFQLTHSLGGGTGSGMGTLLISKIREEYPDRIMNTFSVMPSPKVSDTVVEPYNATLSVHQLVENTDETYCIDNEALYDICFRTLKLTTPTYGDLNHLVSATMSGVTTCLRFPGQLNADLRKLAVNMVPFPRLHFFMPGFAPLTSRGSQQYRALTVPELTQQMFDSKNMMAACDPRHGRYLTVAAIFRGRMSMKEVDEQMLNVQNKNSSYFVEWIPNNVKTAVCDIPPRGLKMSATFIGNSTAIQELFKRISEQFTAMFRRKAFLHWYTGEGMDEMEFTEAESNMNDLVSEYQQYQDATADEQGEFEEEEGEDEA

binding | Substance
binds | Tubulin beta 2B class IIb (TUBB2B), endogenous (from UniProt Q9BVA1 1-445)
binds | flag-TUBB2B (Tubulin beta 2B class IIb, Flag-tagged) (from UniProt Q9BVA1 1-445)

Reference: PMC11831766
